{"sequences": {"note": "Amino acid sequences for entries named in this document (tags omitted).", "UniProt Q9FIJ0": "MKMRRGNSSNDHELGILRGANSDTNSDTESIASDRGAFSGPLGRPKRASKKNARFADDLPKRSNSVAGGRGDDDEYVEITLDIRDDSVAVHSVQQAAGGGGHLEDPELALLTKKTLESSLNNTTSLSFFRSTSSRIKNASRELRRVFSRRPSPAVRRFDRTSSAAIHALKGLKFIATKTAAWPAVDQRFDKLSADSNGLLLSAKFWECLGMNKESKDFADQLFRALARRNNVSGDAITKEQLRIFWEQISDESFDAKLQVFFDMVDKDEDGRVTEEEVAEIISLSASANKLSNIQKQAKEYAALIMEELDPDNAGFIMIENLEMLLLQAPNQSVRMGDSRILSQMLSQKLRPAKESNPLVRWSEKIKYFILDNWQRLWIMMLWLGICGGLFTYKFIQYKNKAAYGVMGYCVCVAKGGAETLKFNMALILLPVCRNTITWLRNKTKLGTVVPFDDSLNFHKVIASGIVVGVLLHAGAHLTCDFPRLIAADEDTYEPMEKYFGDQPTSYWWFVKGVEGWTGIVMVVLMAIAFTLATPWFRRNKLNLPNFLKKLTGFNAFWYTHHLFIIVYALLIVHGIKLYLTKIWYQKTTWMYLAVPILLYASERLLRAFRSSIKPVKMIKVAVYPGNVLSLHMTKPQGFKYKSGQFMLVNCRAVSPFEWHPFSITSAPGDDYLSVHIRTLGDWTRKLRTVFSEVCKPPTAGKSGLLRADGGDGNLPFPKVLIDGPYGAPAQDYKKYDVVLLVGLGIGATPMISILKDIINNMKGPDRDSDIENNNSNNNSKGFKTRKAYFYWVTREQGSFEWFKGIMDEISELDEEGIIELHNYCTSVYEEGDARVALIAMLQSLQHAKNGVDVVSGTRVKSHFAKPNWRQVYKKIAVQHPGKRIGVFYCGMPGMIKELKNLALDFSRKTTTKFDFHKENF"}, "source": "paper doi:10.1101/2025.03.30.646247", "key": {"[1]": {"target": "RbohD-YFP^C (Arabidopsis thaliana) (UniProt Q9FIJ0)", "assay": "split reporter"}, "[2]": {"target": "RbohD-YFP (Arabidopsis thaliana) (UniProt Q9FIJ0)", "assay": "co-IP"}}, "note": "These are yes or no findings as the source states them, for the method shown. In cells and extracts the contact can be indirect. Some binding calls cover weakened binding; strength is not graded here. Sequences can lack the tags named with a protein.", "data": [{"binder": "CIPK6-YFP^N (enzyme, UniProt O65554 1-441) MVGAKPVENGSDGGSSTGLLHGRYELGRLLGHGTFAKVYHARNIQTGKSVAMKVVGKEKVVKVGMVDQIKREISVMRMVKHPNIVELHEVMASKSKIYFAMELVRGGELFAKVAKGRLREDVARVYFQQLISAVDFCHSRGVYHRDLKPENLLLDEEGNLKVTDFGLSAFTEHLKQDGLLHTTCGTPAYVAPEVILKKGYDGAKADLWSCGVILFVLLAGYLPFQDDNLVNMYRKIYRGDFKCPGWLSSDARRLVTKLLDPNPNTRITIEKVMDSPWFKKQATRSRNEPVAATITTTEEDVDFLVHKSKEETETLNAFHIIALSEGFDLSPLFEEKKKEEKREMRFATSRPASSVISSLEEAARVGNKFDVRKSESRVRIEGKQNGRKGKLAVEAEIFAVAPSFVVVEVKKDHGDTLEYNNFCSTALRPALKDIFWTSTPA", "values": [{"measurement": "binding", "setting": "[1]", "result": "binds"}]}, {"binder": "10xcMyc-CIPK6 (enzyme, UniProt O65554 1-441) MVGAKPVENGSDGGSSTGLLHGRYELGRLLGHGTFAKVYHARNIQTGKSVAMKVVGKEKVVKVGMVDQIKREISVMRMVKHPNIVELHEVMASKSKIYFAMELVRGGELFAKVAKGRLREDVARVYFQQLISAVDFCHSRGVYHRDLKPENLLLDEEGNLKVTDFGLSAFTEHLKQDGLLHTTCGTPAYVAPEVILKKGYDGAKADLWSCGVILFVLLAGYLPFQDDNLVNMYRKIYRGDFKCPGWLSSDARRLVTKLLDPNPNTRITIEKVMDSPWFKKQATRSRNEPVAATITTTEEDVDFLVHKSKEETETLNAFHIIALSEGFDLSPLFEEKKKEEKREMRFATSRPASSVISSLEEAARVGNKFDVRKSESRVRIEGKQNGRKGKLAVEAEIFAVAPSFVVVEVKKDHGDTLEYNNFCSTALRPALKDIFWTSTPA", "values": [{"measurement": "binding", "setting": "[2]", "result": "binds"}]}]}
